# PubChem BioAssay AID1159578, Peter MacCallum Cancer Centre – 2015
# Screen: 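Genome-wide hunt for genes controlling movement of lymphatic endothelial cells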 (primary screen)
# Cell system: human lymphatic endothelial cells
# Reagents: siRNA pool against human genes, 40 nM
# Time to read-out: 48 h after transfection
# Measured: 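Cells stained with dye and imaged after a scratch; covered wound area and nuclei counted, duplicates averaged, migration set against mock wells and turned into a robust z-score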
# Reading the numbers: migration robust z-score: higher = faster migration into the scratch; migration relative to mock: higher = more scratch area covered than mock; nuclei per well: higher = more cells in the well
# Rule for the call: 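Pools averaging fewer than 3300 nuclei are never called; remaining pools count as changed when migration robust z lies outside -2 to 2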
# Meaning of the calls: active = migration changed; inactive = no migration change, or too few cells
# The whole screen tested about 18,000 reagents; below is a random part of them. Over the whole deposit, about 1,030 (5.7%) were called active. 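Inactive calls also include pools with fewer than 3300 nuclei, whose migration was not assessed.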 The raw values are shown without normalisation. A number with no mark means an inactive call.
target,migration robust z-score,migration class with cell-count check,migration relative to mock,"nuclei per well, duplicate mean"
FHIP2A,0.45,migration z between -2 and 2; enough cells,1,6104
SYNM,0.02,migration z between -2 and 2; enough cells,0.89,5439
LEO1,-0.67,migration z between -2 and 2; enough cells,0.71,4347
ARL6IP4,2.39 (active),migration z above 2; enough cells,1.5,6048
MAPT,-1.48,migration z between -2 and 2; enough cells,0.5,5681
EPB41L2,-0.04,migration z between -2 and 2; enough cells,0.88,5621
GHRHR,-1.58,under 3300 nuclei; migration not judged,0.5,3114
FCHO1,0.82,migration z between -2 and 2; enough cells,1.09,5448
INTS1,-2.67 (active),migration z below -2; enough cells,0.2,5780
RPS10,-0.44,migration z between -2 and 2; enough cells,0.78,3839
NAPA,-0.71,migration z between -2 and 2; enough cells,0.7,5320
ATP6V1G2,-0.78,migration z between -2 and 2; enough cells,0.66,6522
SRRM3,-0.92,migration z between -2 and 2; enough cells,0.64,5166
ZNF689,-0.16,migration z between -2 and 2; enough cells,0.84,3922
SGCB,-0.75,migration z between -2 and 2; enough cells,0.69,5770
ILF2,0.18,migration z between -2 and 2; enough cells,0.84,4265
ZNF573,0.97,migration z between -2 and 2; enough cells,1.14,5557
LRMDA,-1.38,migration z between -2 and 2; enough cells,0.53,5016
ATP1B4,0.15,migration z between -2 and 2; enough cells,0.92,6684
TPRKB,-0.58,migration z between -2 and 2; enough cells,0.74,6294
C4BPA,-0.01,migration z between -2 and 2; enough cells,0.89,4789
GIP,0.85,migration z between -2 and 2; enough cells,1.11,6176
RHOXF1,-0.32,migration z between -2 and 2; enough cells,0.8,5392
ERP27,-1.45,migration z between -2 and 2; enough cells,0.51,5294
VAV1,-1.45,migration z between -2 and 2; enough cells,0.52,6068
ACSM4,1.02,migration z between -2 and 2; enough cells,1.16,6572
MBD2,-0.76,migration z between -2 and 2; enough cells,0.66,4228
UBL4B,0.38,migration z between -2 and 2; enough cells,0.98,6406
TRIM6,0.73,migration z between -2 and 2; enough cells,0.94,6461
PLEKHG3,-1.98,migration z between -2 and 2; enough cells,0.37,4356
CCDC110,-0.16,migration z between -2 and 2; enough cells,0.84,4753
BOP1,0.16,migration z between -2 and 2; enough cells,0.92,5830
DOCK11,-0.36,migration z between -2 and 2; enough cells,0.79,5155
HAPSTR1,-0.56,migration z between -2 and 2; enough cells,0.74,6914
MON1A,0.04,migration z between -2 and 2; enough cells,0.9,6018
TUFT1,-0.45,migration z between -2 and 2; enough cells,0.77,5832
ECD,0.38,migration z between -2 and 2; enough cells,0.98,7107
NDUFAB1,-0.78,migration z between -2 and 2; enough cells,0.66,4702
TATDN3,0.59,migration z between -2 and 2; enough cells,1.04,5664
TSEN34,-0.96,migration z between -2 and 2; enough cells,0.62,3950
DHX32,0.02,migration z between -2 and 2; enough cells,0.81,5154
SEZ6L,-1.44,migration z between -2 and 2; enough cells,0.52,4289
CENPQ,-0.34,migration z between -2 and 2; enough cells,0.8,6466
GNAI2,-0.75,migration z between -2 and 2; enough cells,0.66,5611
IFITM2,-2.66,under 3300 nuclei; migration not judged,0.2,1926
RAD54B,0.21,migration z between -2 and 2; enough cells,0.84,6138
RPL19P9,-1.68,migration z between -2 and 2; enough cells,0.45,4066
RAB14,0.71,migration z between -2 and 2; enough cells,1.07,5705
CIT,-1.12,migration z between -2 and 2; enough cells,0.59,5284
XPNPEP1,-1.22,migration z between -2 and 2; enough cells,0.57,6043
PTGIR,0.64,migration z between -2 and 2; enough cells,0.93,4944
TRIM67,0.57,migration z between -2 and 2; enough cells,0.92,6285
RASGEF1C,-1.2,migration z between -2 and 2; enough cells,0.57,4713
DGKG,-0.86,migration z between -2 and 2; enough cells,0.64,4652
ACHE,1.14,migration z between -2 and 2; enough cells,1.02,6323
OR52K1,-0.6,migration z between -2 and 2; enough cells,0.73,5228
PDE3A,1.66,migration z between -2 and 2; enough cells,1.12,6545

Entries listed above called active (2):
target,migration robust z-score,migration class with cell-count check,migration relative to mock,"nuclei per well, duplicate mean"
ARL6IP4,2.39 (active),migration z above 2; enough cells,1.5,6048
INTS1,-2.67 (active),migration z below -2; enough cells,0.2,5780
